Experimental data as given in patent US20250325535A1, “IDENTIFICATION OF NOVEL SMALL-MOLECULE INHIBITORS OF SARS-CoV-2 BY CHEMICAL GENETICS” (The University of Hong Kong, priority 2024, published 2025).
At least one structure is not confirmed: it was looked up by name or label, or the drawing left a doubt.

Experiments:
[1] = tested on: recombinant WT SARS-CoV-2; format: cell-based; details: VeroE6-TMPRSS2 cells, recombinant WT virus, 48 hpi
Wild Type SARS-CoV-2 = experiment: Golden Syrian hamster experiment; format: in vivo; details: 1 mg/kg IP, vs control group
[2] = tested on: SARS-CoV-2 VOC Delta, Omicron BA.1/BA.5; format: cell-based; details: B.1.617.2 (Delta), Omicron BA.1 and Omicron BA.5
MERS-CoV = format: cell-based
[3] = tested on: SARS-CoV-2 nucleocapsid (N) antigen; format: cell-based

Compound: Cc1ccc(C2C3=C(CC(c4ccccc4)CC3=O)NC3=C2C(=O)c2ccccc23)cc1 (stereo not drawn) [Compound 172, 10-(4-methylphenyl)-7-phenyl-6,7,8,10-tetrahydro-5H-indeno[1,2-b]quinoline-9,11-dione]
- CPE inhibition phenotype [1]: demonstrated CPE inhibition phenotype
- SARS-CoV-2 N antigen expression in lungs (IF staining) (Wild Type SARS-CoV-2): reduced SARS-COV-2 N antigen expression
- lymphocyte infiltration in lungs (histopathology) (Wild Type SARS-CoV-2): lower degree of lymphocyte infiltration
- IC50 (viral load reduction) [2]: micromolar
- MERS-CoV supernatant viral RNA level (MERS-CoV): below RT-qPCR detection limit
- SARS-CoV-2 N protein expression by immunofluorescent staining [3]: reduced SARS-CoV-2 N protein expression
